Values from PubChem BioAssay AID1259270 (Sanger Institute, 2017)

- Purpose: 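Kinase genes whose loss is synthetically lethal with BYL719, cetuximab or trametinib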 (follow-up of hits)
- Cell system: human SNU-C5 colorectal cancer cells
- Knock-down reagent: single siRNA against human genes
- Treatment: anchor drugs added after knock-down: BYL719 1 µM, cetuximab 5 µg/ml or trametinib 10 nM, or DMSO vehicle
- Measurement: 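Cell survival for each replicate, scaled to non-targeting control pool 2 and then averaged; drug given after knock-down; synergy score compares the combined effect with knock-down and drug separately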
- Scale: synergy score with BYL719 and synergy score with cetuximab and synergy score with trametinib: higher = stronger synergy (extra killing) with the drug; viability, knock-down alone (DMSO): higher = more cells survive
- Call rule: 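a score above 0.10 for BYL719, cetuximab or trametinib gives a synergy call; no score above 0.10 means no synergy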
- Meaning of the calls: active = synergy with at least one drug; inactive = no synergy with any drug
Here is a random part of 160 reagents. In the full data, 76 (48%) are marked active. 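Four separate siRNAs per gene; calls are per siRNA in one cell line, looser than gene-level validation across several lines.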 No viability above 1 is reported: the scale is capped. Reagent sequences are not shown. The record does not give: the amount of reagent, the time to read-out.

| gene knocked down | PubChem SID | synergy score with BYL719 | synergy score with cetuximab | synergy score with trametinib | viability, knock-down alone (DMSO) (fraction of control) | call |
| --- | --- | --- | --- | --- | --- | --- |
| CAMK2N1 (calcium/calmodulin dependent protein kinase II inhibitor 1) | SID134276917 | 0.202 | 0.116 | 0.415 | 1 | active |
| CAMK2N1 (calcium/calmodulin dependent protein kinase II inhibitor 1) | SID134276918 | 0.411 | 0.102 | -0.218 | 0.584 | active |
| CAMK2N1 (calcium/calmodulin dependent protein kinase II inhibitor 1) | SID134276919 | -0.107 | 0.013 | -0.111 | 0.691 | inactive |
| CAMK2N1 (calcium/calmodulin dependent protein kinase II inhibitor 1) | SID134276920 | -0.23 | -0.0459 | -0.333 | 0.322 | inactive |
| MAPK4 (mitogen-activated protein kinase 4) | SID56476079 | 0.1 | 0.265 | -0.109 | 1 | active |
| MAPK4 (mitogen-activated protein kinase 4) | SID56476080 | 0.109 | 0.0791 | 0.336 | 0.798 | active |
| MAPK4 (mitogen-activated protein kinase 4) | SID56476081 | -0.0615 | -0.116 | 0.0276 | 0.786 | inactive |
| MAPK4 (mitogen-activated protein kinase 4) | SID56476082 | 0.0385 | -0.00932 | -0.00766 | 0.542 | inactive |
| CHD4 (chromodomain helicase DNA binding protein 4) | SID134247681 | -0.0686 | -0.000906 | 0.0299 | 0.375 | inactive |
| CHD4 (chromodomain helicase DNA binding protein 4) | SID134247682 | -0.226 | 0.0708 | 0.285 | 0.607 | active |
| CHD4 (chromodomain helicase DNA binding protein 4) | SID134247683 | -0.105 | -0.0644 | -0.211 | 0.572 | inactive |
| CHD4 (chromodomain helicase DNA binding protein 4) | SID134247684 | -0.114 | 0.0351 | -0.0553 | 0.727 | inactive |
| MAPKAPK2 (MAPK activated protein kinase 2) | SID56475927 | 0.118 | -0.304 | -0.353 | 0.727 | active |
| MAPKAPK2 (MAPK activated protein kinase 2) | SID56475928 | -0.0781 | -0.0501 | -0.109 | 1 | inactive |
| MAPKAPK2 (MAPK activated protein kinase 2) | SID56475929 | -0.0934 | -0.0223 | -0.235 | 0.685 | inactive |
| MAPKAPK2 (MAPK activated protein kinase 2) | SID56475930 | -0.215 | -0.0501 | -0.0141 | 1 | inactive |
| GRK5 (G protein-coupled receptor kinase 5) | SID56476519 | 0.0418 | -0.0779 | 0.156 | 0.971 | active |
| GRK5 (G protein-coupled receptor kinase 5) | SID56476520 | -0.199 | -0.225 | -0.172 | 0.816 | inactive |
| GRK5 (G protein-coupled receptor kinase 5) | SID56476521 | 0.0648 | 0.0804 | 0.123 | 1 | active |
| GRK5 (G protein-coupled receptor kinase 5) | SID56476522 | 0.108 | -0.0278 | 0.0318 | 0.911 | active |
| STK36 (serine/threonine kinase 36) | SID56477127 | -0.121 | 0.0449 | 0.0365 | 0.649 | inactive |
| STK36 (serine/threonine kinase 36) | SID56477128 | -0.149 | -0.106 | 0.163 | 0.804 | active |
| STK36 (serine/threonine kinase 36) | SID56477129 | 0.22 | 0.331 | 0.379 | 1 | active |
| STK36 (serine/threonine kinase 36) | SID135611686 | -0.0913 | 0.0499 | 0.147 | 0.786 | active |
| CRIM1 (cysteine rich transmembrane BMP regulator 1) | SID134243173 | 0.0172 | -0.0194 | -0.0583 | 0.864 | inactive |
| CRIM1 (cysteine rich transmembrane BMP regulator 1) | SID134243174 | -0.147 | -0.177 | -0.182 | 0.685 | inactive |
| CRIM1 (cysteine rich transmembrane BMP regulator 1) | SID134243175 | 0.0746 | -0.0084 | 0.000368 | 0.762 | inactive |
| CRIM1 (cysteine rich transmembrane BMP regulator 1) | SID134243176 | -0.328 | -0.236 | 0.124 | 0.667 | active |
| CSNK2A2 (casein kinase 2 alpha 2) | SID56476699 | -0.105 | -0.0123 | 0.491 | 0.959 | active |
| CSNK2A2 (casein kinase 2 alpha 2) | SID56476700 | -0.104 | -0.00112 | -0.207 | 0.156 | inactive |
| CSNK2A2 (casein kinase 2 alpha 2) | SID56476701 | -0.195 | -0.132 | 0.0415 | 0.494 | inactive |
| CSNK2A2 (casein kinase 2 alpha 2) | SID56476702 | -0.0318 | 0.014 | -0.0821 | 0.316 | inactive |
| BMPR2 (bone morphogenetic protein receptor type 2) | SID56477247 | 0.118 | 0.0804 | -0.026 | 1 | active |
| BMPR2 (bone morphogenetic protein receptor type 2) | SID56477249 | -0.183 | -0.0379 | -0.336 | 0.518 | inactive |
| BMPR2 (bone morphogenetic protein receptor type 2) | SID56477250 | -0.257 | -0.108 | -0.325 | 0.757 | inactive |
| BMPR2 (bone morphogenetic protein receptor type 2) | SID135611748 | -0.167 | 0.0824 | -0.118 | 0.971 | inactive |
| KCNH8 (potassium voltage-gated channel subfamily H member 8) | SID134236349 | -0.265 | -0.141 | -0.0288 | 0.429 | inactive |
| KCNH8 (potassium voltage-gated channel subfamily H member 8) | SID134236350 | -0.0338 | 0.103 | 0.14 | 0.685 | active |
| KCNH8 (potassium voltage-gated channel subfamily H member 8) | SID134236351 | -0.215 | -0.0501 | 0.0812 | 1 | inactive |
| KCNH8 (potassium voltage-gated channel subfamily H member 8) | SID134236352 | -0.016 | -0.0981 | 0.333 | 0.768 | active |

Reprinted from above (7 entries):
| gene knocked down | PubChem SID | synergy score with BYL719 | synergy score with cetuximab | synergy score with trametinib | viability, knock-down alone (DMSO) (fraction of control) | call |
| --- | --- | --- | --- | --- | --- | --- |
| STK36 (serine/threonine kinase 36) | SID135611686 | -0.0913 | 0.0499 | 0.147 | 0.786 | active |
| CRIM1 (cysteine rich transmembrane BMP regulator 1) | SID134243173 | 0.0172 | -0.0194 | -0.0583 | 0.864 | inactive |
| CRIM1 (cysteine rich transmembrane BMP regulator 1) | SID134243174 | -0.147 | -0.177 | -0.182 | 0.685 | inactive |
| CRIM1 (cysteine rich transmembrane BMP regulator 1) | SID134243175 | 0.0746 | -0.0084 | 0.000368 | 0.762 | inactive |
| CRIM1 (cysteine rich transmembrane BMP regulator 1) | SID134243176 | -0.328 | -0.236 | 0.124 | 0.667 | active |
| CSNK2A2 (casein kinase 2 alpha 2) | SID56476699 | -0.105 | -0.0123 | 0.491 | 0.959 | active |
| CSNK2A2 (casein kinase 2 alpha 2) | SID56476700 | -0.104 | -0.00112 | -0.207 | 0.156 | inactive |

Further records follow.
| gene knocked down | PubChem SID | synergy score with BYL719 | synergy score with cetuximab | synergy score with trametinib | viability, knock-down alone (DMSO) (fraction of control) | call |
| --- | --- | --- | --- | --- | --- | --- |
| EPHA6 (EPH receptor A6) | SID56477259 | -0.261 | -0.0471 | -0.108 | 0.441 | inactive |
| EPHA6 (EPH receptor A6) | SID56477260 | 0.186 | -0.0867 | 0.273 | 0.661 | active |
| EPHA6 (EPH receptor A6) | SID56477261 | 0.0721 | 0.154 | -0.0721 | 0.607 | active |
| EPHA6 (EPH receptor A6) | SID56477262 | 0.115 | -0.12 | 0.342 | 0.738 | active |
| GUCY2D (guanylate cyclase 2D, retinal) | SID56477308 | 0.041 | -0.0501 | 0.325 | 1 | active |
| GUCY2D (guanylate cyclase 2D, retinal) | SID56477309 | 0.078 | 0.036 | 0.132 | 0.59 | active |
| GUCY2D (guanylate cyclase 2D, retinal) | SID56477310 | -0.256 | -0.14 | 0.217 | 0.417 | active |
| GUCY2D (guanylate cyclase 2D, retinal) | SID135611754 | -0.279 | -0.114 | -0.0636 | 0.858 | inactive |
| PINK1 (PTEN induced kinase 1) | SID56476283 | -0.256 | -0.24 | 0.0534 | 0.788 | inactive |
| PINK1 (PTEN induced kinase 1) | SID56476284 | 0.058 | 0.0455 | 0.276 | 0.756 | active |
| PINK1 (PTEN induced kinase 1) | SID56476285 | 0.0827 | 0.147 | 0.12 | 0.864 | active |
| PINK1 (PTEN induced kinase 1) | SID56476286 | 0.218 | 0.125 | 0.379 | 0.953 | active |
| PLK1 (polo like kinase 1) | SID56475783 | -0.0311 | -0.0503 | -0.0188 | 0.173 | inactive |
| PLK1 (polo like kinase 1) | SID56475784 | -0.12 | -0.00361 | 0.0616 | 0.31 | inactive |
| PLK1 (polo like kinase 1) | SID56475785 | -0.0396 | 0.0879 | -0.0173 | 0.268 | inactive |
| PLK1 (polo like kinase 1) | SID56475786 | -0.0294 | -0.0128 | -0.0625 | 0.137 | inactive |
| RPS6KA4 (ribosomal protein S6 kinase A4) | SID56476603 | -0.266 | -0.0524 | -0.0802 | 0.572 | inactive |
| RPS6KA4 (ribosomal protein S6 kinase A4) | SID56476604 | 0.132 | 0.19 | 0.187 | 0.965 | active |
| RPS6KA4 (ribosomal protein S6 kinase A4) | SID56476605 | -0.0683 | -0.0208 | -0.0532 | 0.762 | inactive |
| RPS6KA4 (ribosomal protein S6 kinase A4) | SID56476606 | 0.0789 | 0.0935 | 0.0146 | 0.631 | inactive |
| PIM1 (Pim-1 proto-oncogene, serine/threonine kinase) | SID56476199 | -0.0305 | 0.0997 | 0.156 | 0.864 | active |
| PIM1 (Pim-1 proto-oncogene, serine/threonine kinase) | SID56476200 | 0.08 | -0.0851 | 0.291 | 0.807 | active |
| PIM1 (Pim-1 proto-oncogene, serine/threonine kinase) | SID56476201 | -0.475 | -0.418 | -0.536 | 0.494 | inactive |
| PIM1 (Pim-1 proto-oncogene, serine/threonine kinase) | SID56476202 | -0.0921 | -0.0441 | 0.0123 | 0.762 | inactive |
| SYNCRIP (synaptotagmin binding cytoplasmic RNA interacting protein) | SID134270601 | -0.134 | -0.0793 | -0.163 | 0.512 | inactive |
| SYNCRIP (synaptotagmin binding cytoplasmic RNA interacting protein) | SID134270602 | 0.14 | 0.058 | -0.124 | 0.983 | active |
| SYNCRIP (synaptotagmin binding cytoplasmic RNA interacting protein) | SID134270603 | -0.0193 | -0.0808 | 0.0373 | 0.423 | inactive |
| SYNCRIP (synaptotagmin binding cytoplasmic RNA interacting protein) | SID134270604 | 0.0827 | 0.116 | 0.401 | 1 | active |
| SYK (spleen associated tyrosine kinase) | SID56475471 | 0.0843 | 0.0437 | 0.365 | 0.911 | active |
| SYK (spleen associated tyrosine kinase) | SID56475472 | -0.0536 | 0.0996 | -0.031 | 0.667 | inactive |
| SYK (spleen associated tyrosine kinase) | SID56475473 | 0.0195 | -0.0242 | -0.102 | 0.721 | inactive |
| SYK (spleen associated tyrosine kinase) | SID56475474 | -0.156 | 0.0804 | 0.284 | 1 | active |
| IRAK3 (interleukin 1 receptor associated kinase 3) | SID56476711 | 0.07 | -0.0691 | 0.0237 | 0.548 | inactive |
| IRAK3 (interleukin 1 receptor associated kinase 3) | SID56476712 | 0.0469 | 0.146 | 0.254 | 1 | active |
| IRAK3 (interleukin 1 receptor associated kinase 3) | SID56476713 | 0.0541 | 0.0482 | 0.172 | 0.941 | active |
| IRAK3 (interleukin 1 receptor associated kinase 3) | SID56476714 | -0.138 | 0.247 | 0.17 | 1 | active |
